These are yes or no findings as the source states them, for the method shown. Binding seen in cells or lysates may run through a third protein. These calls come from enrichment with a bait or labelling near it, and not all partners need be listed.
T1: PLZF (mouse (endogenous in cultured murine undifferentiated spermatogonia)) (UniProt Q3UQ17)
T1 sequence: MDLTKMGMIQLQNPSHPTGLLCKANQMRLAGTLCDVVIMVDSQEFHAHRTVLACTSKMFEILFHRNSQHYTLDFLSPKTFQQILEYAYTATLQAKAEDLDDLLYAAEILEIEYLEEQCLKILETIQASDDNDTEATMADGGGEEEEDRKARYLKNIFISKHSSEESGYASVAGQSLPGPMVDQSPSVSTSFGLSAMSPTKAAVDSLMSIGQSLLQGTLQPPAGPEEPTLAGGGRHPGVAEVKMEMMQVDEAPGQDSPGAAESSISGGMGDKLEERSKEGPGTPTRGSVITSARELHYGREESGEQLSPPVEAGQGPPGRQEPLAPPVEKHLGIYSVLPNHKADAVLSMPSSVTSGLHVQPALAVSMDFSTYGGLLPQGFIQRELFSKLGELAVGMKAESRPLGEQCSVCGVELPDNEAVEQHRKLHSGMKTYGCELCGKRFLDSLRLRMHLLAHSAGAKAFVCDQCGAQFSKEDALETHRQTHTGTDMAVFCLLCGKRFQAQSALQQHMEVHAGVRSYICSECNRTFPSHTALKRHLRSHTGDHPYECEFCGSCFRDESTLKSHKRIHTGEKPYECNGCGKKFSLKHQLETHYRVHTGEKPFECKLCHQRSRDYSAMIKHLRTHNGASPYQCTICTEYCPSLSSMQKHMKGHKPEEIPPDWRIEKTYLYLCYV

Sequences of proteins named here, by UniProt entry; tags and fusion partners are left off.
UniProt Q8BX22: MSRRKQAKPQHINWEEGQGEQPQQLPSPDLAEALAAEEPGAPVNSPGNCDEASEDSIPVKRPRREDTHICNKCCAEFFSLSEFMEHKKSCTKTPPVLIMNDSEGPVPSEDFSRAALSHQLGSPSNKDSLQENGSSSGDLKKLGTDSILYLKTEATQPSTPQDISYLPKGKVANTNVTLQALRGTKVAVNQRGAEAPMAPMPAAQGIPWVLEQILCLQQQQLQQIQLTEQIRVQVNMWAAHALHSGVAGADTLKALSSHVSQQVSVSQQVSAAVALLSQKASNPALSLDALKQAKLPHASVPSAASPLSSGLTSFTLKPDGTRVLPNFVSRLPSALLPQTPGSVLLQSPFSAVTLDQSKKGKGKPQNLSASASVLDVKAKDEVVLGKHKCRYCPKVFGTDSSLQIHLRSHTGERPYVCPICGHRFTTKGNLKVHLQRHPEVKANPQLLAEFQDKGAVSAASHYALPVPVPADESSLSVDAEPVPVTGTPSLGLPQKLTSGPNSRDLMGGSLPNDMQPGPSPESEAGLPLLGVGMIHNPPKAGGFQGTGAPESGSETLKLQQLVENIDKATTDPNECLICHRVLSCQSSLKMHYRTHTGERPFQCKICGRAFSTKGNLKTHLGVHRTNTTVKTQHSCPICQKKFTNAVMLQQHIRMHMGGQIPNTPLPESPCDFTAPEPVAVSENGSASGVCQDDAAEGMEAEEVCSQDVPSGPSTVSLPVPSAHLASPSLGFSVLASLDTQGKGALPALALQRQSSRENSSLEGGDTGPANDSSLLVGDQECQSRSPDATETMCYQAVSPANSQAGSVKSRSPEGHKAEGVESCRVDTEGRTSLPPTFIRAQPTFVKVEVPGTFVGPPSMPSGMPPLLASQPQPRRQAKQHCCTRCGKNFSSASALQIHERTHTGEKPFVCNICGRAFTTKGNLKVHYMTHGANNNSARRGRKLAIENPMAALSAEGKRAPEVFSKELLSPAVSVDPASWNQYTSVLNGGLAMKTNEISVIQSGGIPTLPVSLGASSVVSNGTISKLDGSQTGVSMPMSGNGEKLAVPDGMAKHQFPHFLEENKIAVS
UniProt Q61656: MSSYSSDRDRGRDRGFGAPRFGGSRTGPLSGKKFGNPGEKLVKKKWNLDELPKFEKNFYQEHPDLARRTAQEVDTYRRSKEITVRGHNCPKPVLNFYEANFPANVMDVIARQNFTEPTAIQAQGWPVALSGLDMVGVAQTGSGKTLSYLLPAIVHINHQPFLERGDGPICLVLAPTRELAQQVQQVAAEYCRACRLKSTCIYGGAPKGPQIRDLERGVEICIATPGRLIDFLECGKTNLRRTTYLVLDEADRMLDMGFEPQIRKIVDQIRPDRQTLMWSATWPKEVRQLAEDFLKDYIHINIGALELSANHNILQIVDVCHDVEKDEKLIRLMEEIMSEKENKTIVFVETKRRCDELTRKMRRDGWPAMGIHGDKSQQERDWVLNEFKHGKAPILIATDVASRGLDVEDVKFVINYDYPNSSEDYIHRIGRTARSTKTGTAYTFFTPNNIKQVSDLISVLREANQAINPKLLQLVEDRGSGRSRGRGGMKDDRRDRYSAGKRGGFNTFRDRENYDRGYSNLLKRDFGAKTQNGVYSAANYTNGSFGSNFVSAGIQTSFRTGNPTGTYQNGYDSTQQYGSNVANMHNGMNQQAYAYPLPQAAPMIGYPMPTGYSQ
UniProt P70372: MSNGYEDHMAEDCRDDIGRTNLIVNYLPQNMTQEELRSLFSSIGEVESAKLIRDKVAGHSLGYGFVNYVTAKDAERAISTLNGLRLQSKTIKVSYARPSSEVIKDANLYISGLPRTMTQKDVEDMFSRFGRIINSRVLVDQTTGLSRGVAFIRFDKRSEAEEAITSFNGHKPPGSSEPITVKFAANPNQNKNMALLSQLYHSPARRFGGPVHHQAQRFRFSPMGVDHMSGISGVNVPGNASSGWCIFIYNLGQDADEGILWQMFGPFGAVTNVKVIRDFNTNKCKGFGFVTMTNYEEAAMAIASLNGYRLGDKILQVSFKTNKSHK
UniProt Q9CPN8: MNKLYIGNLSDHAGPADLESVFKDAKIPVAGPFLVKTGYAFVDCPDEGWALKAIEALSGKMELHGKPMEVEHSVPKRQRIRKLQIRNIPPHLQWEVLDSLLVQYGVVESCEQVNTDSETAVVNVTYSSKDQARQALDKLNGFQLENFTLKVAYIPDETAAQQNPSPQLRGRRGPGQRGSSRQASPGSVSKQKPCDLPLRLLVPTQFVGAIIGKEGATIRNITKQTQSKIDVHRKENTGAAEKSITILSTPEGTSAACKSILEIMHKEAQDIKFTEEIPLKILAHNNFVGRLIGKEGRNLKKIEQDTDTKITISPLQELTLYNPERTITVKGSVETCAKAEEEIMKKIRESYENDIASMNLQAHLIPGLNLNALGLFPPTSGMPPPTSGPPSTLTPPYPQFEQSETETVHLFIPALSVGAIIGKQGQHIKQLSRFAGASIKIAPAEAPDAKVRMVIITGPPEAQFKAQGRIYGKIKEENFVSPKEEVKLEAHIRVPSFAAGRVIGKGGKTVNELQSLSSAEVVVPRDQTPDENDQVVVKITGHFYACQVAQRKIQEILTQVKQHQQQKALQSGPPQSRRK
UniProt Q9CXY6: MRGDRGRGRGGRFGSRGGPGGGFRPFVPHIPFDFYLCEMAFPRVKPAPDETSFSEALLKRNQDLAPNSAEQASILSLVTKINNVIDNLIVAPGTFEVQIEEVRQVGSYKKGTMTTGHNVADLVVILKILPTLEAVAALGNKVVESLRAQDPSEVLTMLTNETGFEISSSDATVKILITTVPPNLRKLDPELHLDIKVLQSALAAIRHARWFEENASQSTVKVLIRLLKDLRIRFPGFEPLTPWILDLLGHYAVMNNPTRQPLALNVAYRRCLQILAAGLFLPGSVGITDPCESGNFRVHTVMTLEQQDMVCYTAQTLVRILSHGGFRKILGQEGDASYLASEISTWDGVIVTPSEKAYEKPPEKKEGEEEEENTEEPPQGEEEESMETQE
UniProt P29341: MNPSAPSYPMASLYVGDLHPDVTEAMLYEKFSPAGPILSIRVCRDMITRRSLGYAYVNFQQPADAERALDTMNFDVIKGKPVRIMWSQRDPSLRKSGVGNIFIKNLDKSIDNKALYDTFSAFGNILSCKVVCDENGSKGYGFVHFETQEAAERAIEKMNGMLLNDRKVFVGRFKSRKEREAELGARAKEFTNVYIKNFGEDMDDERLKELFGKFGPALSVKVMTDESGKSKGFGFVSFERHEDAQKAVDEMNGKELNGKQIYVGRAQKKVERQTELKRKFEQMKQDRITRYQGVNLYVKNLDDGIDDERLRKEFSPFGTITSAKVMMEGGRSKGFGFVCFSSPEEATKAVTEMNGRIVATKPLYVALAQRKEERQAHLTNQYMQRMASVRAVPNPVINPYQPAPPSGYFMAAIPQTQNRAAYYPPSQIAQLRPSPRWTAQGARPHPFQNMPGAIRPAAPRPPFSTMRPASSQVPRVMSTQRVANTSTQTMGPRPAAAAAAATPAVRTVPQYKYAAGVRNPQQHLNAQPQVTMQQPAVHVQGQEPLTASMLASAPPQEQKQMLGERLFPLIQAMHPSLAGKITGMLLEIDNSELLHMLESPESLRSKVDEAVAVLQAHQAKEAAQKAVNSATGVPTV

B1: SRSF3 (protein, UniProt P84104 1-164)
chain: MHRDSCPLDCKVYVGNLGNNGNKTELERAFGYYGPLRSVWVARNPPGFAFVEFEDPRDAADAVRELDGRTLCGCRVRVELSNGEKRSRNRGPPPSWGRRPRDDYRRRSPPPRRRSPRRRSFSRSRSRSLSRDRRRERSLSRERNHKPSRSFSRSRSRSRSNERK
B2: ILF3 (interleukin enhancer binding factor 3) (protein, UniProt Q9Z1X4 1-898)
chain: MRPMRIFVNDDRHVMAKHSSVYPTQEELEAVQNMVSHTERALKAVSDWIDEQEKGNSELSEAENMDTPPDDESKEGAGEQKAEHMTRTLRGVMRVGLVAKGLLLKGDLDLELVLLCKEKPTTALLDKVADNLAIQLTTVTEDKYEILQSVDDAAIVIKNTKEPPLSLTIHLTSPVVREEMEKVLAGETLSVNDPPDVLDRQKCLAALASLRHAKWFQARANGLKSCVIVIRVLRDLCTRVPTWGPLRGWPLELLCEKSIGTANRPMGAGEALRRVLECLASGIVMPDGSGIYDPCEKEATDAIGHLDRQQREDITQSAQHALRLAAFGQLHKVLGMDPLPSKMPKKPKNENPVDYTVQIPPSTTYAITPMKRPMEEDGEEKSPSKKKKKIQKKEEKADPPQAMNALMRLNQLKPGLQYKLISQTGPVHAPIFTMSVEVDGSNFEASGPSKKTAKLHVAVKVLQDMGLPTGAEGRDSSKGEDSAEESDGKPAIVAPPPVVEAVSNPSSVFPSDATTEQGPILTKHGKNPVMELNEKRRGLKYELISETGGSHDKRFVMEVEVDGQKFQGAGSNKKVAKAYAALAALEKLFPDTPLALEANKKKRTPVPVRGGPKFAAKPHNPGFGMGGPMHNEVPPPPNIRGRGRGGNIRGRGRGRGFGGANHGGGYMNAGAGYGSYGYSSNSATAGYSQFYSNGGHSGNAGGGGSGGGGGSSSYSSYYQGDSYNSPVPPKHAGKKPLHGGQQKASYSSGYQSHQGQQQPYNQSQYSSYGTPQGKQKGYGHGQGSYSSYSNSYNSPGGGGGSDYSYDSKFNYSGSGGRSGGNSYGSSGSSSYNTGSHGGYGTGSGGSSSYQGKQGGYSSQSNYSSPGSSQSYSGPASSYQSSQGGYSRNTEHSMNYQYR

Molecular target: T1, PLZF (mouse (endogenous in cultured murine undifferentiated spermatogonia))
Test: affinity purification with mass spectrometry; PLZF immunoprecipitation (goat anti-PLZF, R&D AF2944, coupled to Dynabeads) from lysates of cultured wildtype murine undifferentiated spermatogonia; lysis buffer 50 mM Tris-HCl pH 8.0, 150 mM NaCl, 5 mM EDTA, 0.5% Nonidet P-40, 1 mM DTT; three independent samples

Row | binding | Molecule
1 | binds | SALL4 (from UniProt Q8BX22 1-1067)

Molecular target: DEAD box helicase 5 (DDX5) (mouse (endogenous in cultured murine undifferentiated spermatogonia)) (UniProt Q61656)
Test: affinity purification with mass spectrometry; DDX5 immunoprecipitation (goat anti-DDX5, Abcam ab10261, coupled to Dynabeads) from lysates of cultured wildtype murine undifferentiated spermatogonia; lysis buffer 50 mM Tris-HCl pH 8.0, 150 mM NaCl, 5 mM EDTA, 0.5% Nonidet P-40, 1 mM DTT; n = 3 independent experiments

Row | binding | Molecule
2 | binds | ELAVL1 (from UniProt P70372 1-326)
3 | binds | IGF2BP3 (from UniProt Q9CPN8 1-579)
4 | binds | ILF2 (from UniProt Q9CXY6 1-390)
5 | binds | PABP1 (from UniProt P29341 1-636)
6 | binds | B1
7 | binds | B2

— article PMC6533336
